Experimental data published in article PMC1525168.
These are yes or no findings as the source states them, for the method shown. Some binding calls cover weakened binding; strength is not graded here.

T1: GGLO1 (Gerbera hybrida) (UniProt Q9ZS26)
T1 sequence: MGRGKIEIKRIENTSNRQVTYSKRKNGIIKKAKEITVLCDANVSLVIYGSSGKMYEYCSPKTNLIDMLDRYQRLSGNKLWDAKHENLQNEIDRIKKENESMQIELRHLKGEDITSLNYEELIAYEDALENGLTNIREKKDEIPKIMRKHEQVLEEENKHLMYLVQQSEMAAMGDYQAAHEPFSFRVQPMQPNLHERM


Molecular target: T1, GGLO1 (Gerbera hybrida)
Test: two-hybrid; yeast two-hybrid; data not shown; bait and prey not stated

Row | binding | Binder
1 | binds | GDEF2 (protein, UniProt Q9ZS27 1-228) MARGKIQIKKIENSTNRQVTYSKRRNGLFKKASELTVLCDAKVSIIMVSCTDKLHEYISPSITTKQFFDQYQKASGIDLWNSHYEKMQEELRQLKEVNRNLRRQIRQRLGDCLEDLGFEEFLDLEKESQEAVYIIRERKLKVIGNKLETSKKKVRSAQDVYKKLMHEFDIRGEDPQYGMIEDGVEYEALYGYPPHISAPRILTLRLQPNHPDNLHAAASDLTTYALLG
2 | binds | GDEF1 (protein, UniProt Q9ZS28 1-226) MGRGKIEIKKIENNTNRQVTYSKRRNGIFKKAHELTVLCDAKVSLIMFSNTGKFHEYISPSTTTKKMYDQYQSTVGFDLWSSHYERMKETMKKLKDTNNKLRREIRQRVLGEDFDGLDMNDLTSLEQHMQDSLTLVRERKYHVIKTQTDTCRKRVRNLEQRNGNLRLDYETIHQLDKKYDTGENEGDYESVVAYSNGVSNLYAFCVHPNNIPHGAGYELHDHQHTN
